Earlier results in US20150072003A1, “FORMULATIONS” (Hoffmann-La Roche Inc., priority 2012, published 2015).
Where two headings read alike, the source gives them in different places. At least one compound was matched to its structure with a doubt left.

Columns and labels:
[1] = humans; de Grooth et al.
[2] = rabbits
[3] = test system: atherosclerosis; details: rabbits; Okamoto et al.

Q: For CCC(CC)CC1(C(=O)Nc2ccccc2SC(=O)C(C)C)CCCCC1 [S-[2-([[1-(2-ethylbutyl)cyclohexyl]carbonyl]amino)phenyl]2-methylpropanethioate], which LDL cholesterol [1] is on record?
A: decrease LDL cholesterol

Q: What about the “plasma HDL cholesterol” value [1] of the same compound?
A: increase plasma HDL cholesterol

Q: And the LDL cholesterol ([2]; Okamoto et al.)?
A: decrease LDL cholesterol

Q: And the “plasma HDL cholesterol” value ([2]; Shinkai, Kobayashi, Okamoto)?
A: increase plasma HDL cholesterol

Q: What about the progression of atherosclerosis [3] of the same compound?
A: inhibits the progression of atherosclerosis
